Results of single-concentration screens

The chains behind the UniProt entries cited, without tags or fusion partners. Residues count along the entry.
UniProt A4I591, 1-473: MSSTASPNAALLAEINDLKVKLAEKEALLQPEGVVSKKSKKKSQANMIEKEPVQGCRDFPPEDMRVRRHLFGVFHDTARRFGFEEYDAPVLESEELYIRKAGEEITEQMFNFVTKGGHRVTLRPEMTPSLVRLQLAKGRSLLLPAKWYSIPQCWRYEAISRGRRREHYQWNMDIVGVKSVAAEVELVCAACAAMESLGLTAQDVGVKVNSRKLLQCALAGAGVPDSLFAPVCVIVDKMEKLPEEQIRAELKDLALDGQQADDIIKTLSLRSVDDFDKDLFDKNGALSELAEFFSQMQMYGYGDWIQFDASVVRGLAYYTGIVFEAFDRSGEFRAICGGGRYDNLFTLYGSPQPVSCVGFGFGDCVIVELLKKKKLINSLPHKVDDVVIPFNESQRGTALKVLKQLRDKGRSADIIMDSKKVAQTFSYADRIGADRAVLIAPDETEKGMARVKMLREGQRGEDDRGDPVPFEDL
UniProt P9WFT3, whole entry: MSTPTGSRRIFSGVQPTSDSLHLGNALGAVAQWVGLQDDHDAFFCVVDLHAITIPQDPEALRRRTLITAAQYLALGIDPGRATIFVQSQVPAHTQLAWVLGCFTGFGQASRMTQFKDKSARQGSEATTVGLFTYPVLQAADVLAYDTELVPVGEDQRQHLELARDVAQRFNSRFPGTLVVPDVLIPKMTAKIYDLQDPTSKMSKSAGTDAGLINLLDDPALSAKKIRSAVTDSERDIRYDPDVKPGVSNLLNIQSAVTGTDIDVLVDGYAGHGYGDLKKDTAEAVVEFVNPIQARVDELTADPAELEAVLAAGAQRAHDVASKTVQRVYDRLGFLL

A: 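Enzyme assay of histidyl-tRNA synthetase; the read-out is not stated. Target: Histidine-tRNA ligase, Leishmania infantum (UniProt A4I591). Concentration: 30 µM. The record gives no direction; compounds that gave an IC50 in retests scored well above the rest, so higher reads as stronger inhibition. The assay is labelled LdHisRS but filed under L. infantum. Size under these conditions: about 69,000 compounds, about 410 of them at 50% or above in at least one test.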
B: 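Whole-parasite assay of Trypanosoma brucei over 72 hours; the read-out is not stated. Concentration: 30 µM. Higher reads as stronger inhibition (inferred: compounds with an IC50 in retests scored well above the rest). Values scatter widely below zero; nearly all retest evidence comes from the higher of the two concentrations used. About 64,000 compounds were tested under these conditions; 1.5% (about 940) showed 50% or more at least once.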
C: 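Enzyme assay of tryptophanyl-tRNA synthetase; the read-out is not stated. Target: Tryptophan-tRNA ligase, Mycobacterium tuberculosis (UniProt P9WFT3). Concentration: 10 µM. Direction is not recorded; retested compounds ran higher, which suggests that high means inhibition. Of about 65,000 compounds tested this way, about 64 (0.098%) reached 50% or more in at least one test.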

The filed quantity is “Percent Effect” (%).
How 0% and 100% were set is not recorded. Most values in the screen are low, and negative values occur.
Compounds were drawn at random from those tested, without regard to their results.
A dash means the value is not listed here; it may have been measured.

{"compound": "COc1ccccc1CN1CC(OC)CN(C(=O)CC(C)C)CC1=O", "stereo": "stereo unspecified", "A": 14.43, "B": -5.354}
{"compound": "COCCn1cc(C(=O)Nc2nc3c(s2)CCC3)c2ccccc21", "A": 28.26, "B": 0.9862, "C": 6.27}
{"compound": "Cc1c[nH]nc1C1CCCN1Cc1nccn1C", "stereo": "stereo unspecified", "A": 1.342, "C": -3.143}
{"compound": "Cc1nc(NC(=O)CN2C(=O)c3ccccc3NC2C(C)C)sc1C", "stereo": "stereo unspecified", "A": 21.74, "B": -33.54, "C": 3.859}
{"compound": "Cc1cc(C)n(-c2ccccc2NC(=O)NCCCN(C)S(C)(=O)=O)n1", "A": 16.07, "B": -25.36, "C": -2.513}
{"compound": "COc1ccccc1OC1CCN(C(=O)c2cccc(O)c2C)CC1", "A": 9.333, "B": -17.63, "C": -4.863}
{"compound": "[H][C@@]12COC[C@]1([H])[C@@H](OCc1ccccn1)CN2C(=O)c1ccnnc1", "B": 30.31}
{"compound": "COCc1ncc(CN2CCC(Oc3ccccc3OC)CC2)cn1", "A": 15.24, "B": -7.671, "C": 1.754}
{"compound": "CC(C)=CCN1CC2(CCN(C(=O)CCn3ccnc3C)CC2)CC1=O", "A": 22.34, "B": -19.24, "C": 2.065}
{"compound": "Cn1ccnc1-c1nc(NC2CCCC2)ncc1-c1cccc(F)c1", "A": 12.86, "B": 20.44, "C": 4.863}
{"compound": "Cn1ccc(C(=O)N2CCC3(CCC(=O)N(C4CCCC4)C3)CC2)n1", "A": -1.333, "B": -42.41, "C": 7.869}
{"compound": "Cn1ccnc1C1(O)CCN(C(=O)CCc2ccccc2)CC1", "A": 5.594, "C": 0.718}
{"compound": "O=C(CNC(=O)N(Cc1ccoc1)C1CCCCC1)N1CCCC1", "A": 7.937, "B": -8.323, "C": 1.687}
{"compound": "CN(c1ccncn1)C1CC2(CCN(C(=O)c3cncs3)C2)C1", "stereo": "stereo unspecified", "A": -7.246, "B": -36.59}
{"compound": "CC(=O)N1CCN(c2ccccc2CNc2ccc3[nH]ncc3c2)CC1", "A": 57.53, "B": -0.6601, "C": 0.2865}
{"compound": "Cc1cc(C(F)(F)F)nn1CCCNC(=O)C1CCCO1", "stereo": "stereo unspecified", "A": 20.62, "B": -15.88}
{"compound": "Cc1cc(C)nc(-n2nc(C)c3c2NC(=O)CSC3c2cnn(C)c2)n1", "stereo": "stereo unspecified", "A": 21.05, "B": -33.17, "C": -1.19}
{"compound": "CC(C)CN1C(=O)CC(N2CCN(c3ccc(F)cc3)CC2)C1=O", "stereo": "stereo unspecified", "A": 15, "B": -31.35, "C": -0.678}
{"compound": "CS(=O)(=O)N1CCN(C(=O)c2ccco2)[C@H]2CS(=O)(=O)C[C@H]21", "A": 6.349, "C": 1.817}
{"compound": "CCOc1ccc(C#N)cc1NCC(=O)Nc1cc(C)no1", "A": 12.36, "B": 14.73, "C": 1.18}
{"compound": "NC(=O)CN1CCC(NC2CSCCc3ccccc32)CC1", "stereo": "stereo unspecified", "A": 10, "B": -59.11, "C": 2.207}
{"compound": "O=C(CSC1CCc2ccccc2NC1=O)NCCO", "stereo": "stereo unspecified", "A": 9.524, "B": -12.38, "C": -0.7519}
{"compound": "COCCN(C/C=C/c1ccccc1)Cc1ccccn1", "A": 14.29, "B": -45.96, "C": -0.1679}
{"compound": "O=S(=O)(c1cccnc1)N1CCC(OCCCc2ccccc2)C1", "stereo": "stereo unspecified", "A": 12.61, "B": -35.81, "C": -6.049}
{"compound": "CCn1cnnc1CNC(=O)N1CCC(C(=O)NC)CC1", "A": 9.459, "B": -21.99, "C": -4.139}
{"compound": "CC(O)CN1CCN(C(=O)c2sccc2C2CC2)CC1", "stereo": "stereo unspecified", "A": 7.826, "B": -15.08, "C": -1.917}
{"compound": "O=C(c1cscn1)N1CCC2(CN(Cc3nccs3)C2)C1", "A": 3, "C": -5.383}
{"compound": "COc1ccc(CN2CCC3(CC2)CN(c2ccccn2)CCO3)cc1", "A": 12.33, "C": -0.241}
{"compound": "COc1ccc(CN2CCc3nnc(COCCN(C)C)n3CC2)cc1", "A": 13.89, "C": -5.231}
{"compound": "Cc1ccc(NC(=O)c2nc3c(s2)CCCN3C(=O)C2CC2)cn1", "A": 18, "C": -9.149}
{"compound": "COc1ccccc1OCC(=O)n1ncc(C#N)c1N", "A": 3.947, "B": -49.51, "C": 2.834}
{"compound": "CCOc1cc(CN(C)CCCO)ccc1OC(F)F", "A": 3.529, "B": -4.703, "C": -0.8392}
{"compound": "Cc1cc(C)nc(Nc2cc(C3CCCN(C)C3)nc(C)n2)n1", "stereo": "stereo unspecified", "A": 25, "C": -2.926}
{"compound": "Cc1cccc(C(C(=O)NCc2cc(C)[nH]n2)N(C)C)c1", "stereo": "stereo unspecified", "A": 8.197, "B": -69.85, "C": -3.173}
{"compound": "Cc1ccc2c(c1)C1(CC(=O)Nc3[nH]ncc31)C(=O)N2C", "stereo": "stereo unspecified", "A": 5.263, "B": -33.65, "C": 1.022}
{"compound": "CCN1CC2(CCC1=O)CCN(CCc1nccn1C)CC2", "A": 12.5, "B": -25.66, "C": -3.509}
{"compound": "Cc1occc1C(=O)N1CCC2(CC1)CN(c1ccccn1)CCO2", "A": 6.422, "C": 0.382}
{"compound": "O=C(CCn1cnnn1)N1CCCC(CO)(CCc2ccccc2)C1", "stereo": "stereo unspecified", "A": -1.961, "B": -20.34, "C": 0.5757}

The last 3 entries again:

Compound,A,B,C
CCN1CC2(CCC1=O)CCN(CCc1nccn1C)CC2,12.5,-25.66,-3.509
Cc1occc1C(=O)N1CCC2(CC1)CN(c1ccccn1)CCO2,6.422,-,0.382
O=C(CCn1cnnn1)N1CCCC(CO)(CCc2ccccc2)C1 (stereo unspecified),-1.961,-20.34,0.5757

From ChEMBL document CHEMBL3988442, “University of Dundee, Small-Polar-MMV Screening Library” (2021).